These results are taken from doi:10.1101/2022.06.07.494883.

Amino acid sequences for entries named in this document (tags omitted). A change or cut given only in a name is not applied to a line headed by its entry.
UniProt P0C7B7: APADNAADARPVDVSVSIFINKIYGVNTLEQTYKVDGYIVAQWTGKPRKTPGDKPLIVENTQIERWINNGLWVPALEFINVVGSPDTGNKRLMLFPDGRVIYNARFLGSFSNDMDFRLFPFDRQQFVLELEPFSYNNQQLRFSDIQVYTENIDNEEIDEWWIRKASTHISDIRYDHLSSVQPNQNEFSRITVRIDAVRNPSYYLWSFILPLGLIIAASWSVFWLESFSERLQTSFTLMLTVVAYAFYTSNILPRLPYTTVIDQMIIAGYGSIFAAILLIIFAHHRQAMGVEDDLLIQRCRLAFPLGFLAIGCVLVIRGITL

Results are given in words; binding and its absence hold for the method and conditions named. Some entries that bind do so weakly or less than the wild type.

Common to all, as to experiment: cryo-EM structure
Test [1] deals with ELIC quintuple mutant P254G/C300S/V261Y/G319F/I320F (ELIC5) (Erwinia chrysanthemi) (UniProt P0C7B7).
Test [2] concerns the target ELIC triple mutant V261Y/G319F/I320F (ELIC3) (Erwinia chrysanthemi) (UniProt P0C7B7).
Test [3] deals with Erwinia chrysanthemi ligand-gated ion channel (ELIC), wild type (Erwinia chrysanthemi) (UniProt P0C7B7).

With “ELIC quintuple mutant P254G/C300S/V261Y/G319F/I320F (ELIC5) (from UniProt P0C7B7 1-321)”, the binding result in test [1] is recorded as “binds”.

For the substance “ELIC triple mutant V261Y/G319F/I320F (ELIC3) (from UniProt P0C7B7 1-321)”, the binding entry in test [2] is listed as “binds”. Consider “Erwinia chrysanthemi ligand-gated ion channel (ELIC), wild type (from UniProt P0C7B7 1-321)”, for which the binding result in test [3] is on record as “binds”.
